Laboratory results reported in PubChem BioAssay AID504847 (National Center for Advancing Translational Sciences (NCATS), 2011).
The whole screen tested about 400,000 compounds, of which about 3,700 (0.93%) were called active. Inconclusive means that the source gave no clear call. Such entries were picked first, then a sample of the others. Calls come from the whole dose curve; as a rule, active = well fitted inhibition curve with a large enough effect; inconclusive = small, poorly fitted or top-dose-only effect, or another doubt; inactive = no such curve, though single readings can be large or run the other way. Where the call is inconclusive, the potency comes from a doubtful curve fit.

By UniProt entry, the sequences of proteins in these tests, tags left out. Where a name states a change or a piece, a line headed by the entry shows the natural chain unless it says otherwise.
UniProt P11473: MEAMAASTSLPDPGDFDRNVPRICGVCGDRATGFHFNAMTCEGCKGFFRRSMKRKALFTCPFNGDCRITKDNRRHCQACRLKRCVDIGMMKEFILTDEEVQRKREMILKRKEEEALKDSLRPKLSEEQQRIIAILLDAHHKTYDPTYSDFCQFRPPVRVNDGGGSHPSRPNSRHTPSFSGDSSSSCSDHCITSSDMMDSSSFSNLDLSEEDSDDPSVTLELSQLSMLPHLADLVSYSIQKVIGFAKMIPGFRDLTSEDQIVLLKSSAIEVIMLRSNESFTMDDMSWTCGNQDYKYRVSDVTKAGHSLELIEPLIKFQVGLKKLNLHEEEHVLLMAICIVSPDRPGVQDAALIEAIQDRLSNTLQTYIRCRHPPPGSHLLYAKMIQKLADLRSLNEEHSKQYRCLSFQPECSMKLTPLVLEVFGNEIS

Each compound was assayed against Vitamin D3 receptor (Homo sapiens) (UniProt P11473) (assay: Inhibitors of the vitamin D receptor (VDR): qHTS). Settings: VDR-SRC2-3 peptide fluorescence polarization, 2 h; max response, negative = inhibition: hits give low values.
Procedure, shortened: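 After 23 nl compound addition and a short centrifugation, plates sat for 2 hours at ambient temperature; polarization of fluorescence then indicated loss of VDR binding to peptide SRC2-3.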
% is set by controls: 0 for no effect and ±100 for the full control effect; potency is the fitted concentration of half-maximal effect.

Row | SMILES | max response, negative = inhibition | Potency
1 | Cc1ccc(NC(=O)Nc2ccc3c(c2)OCO3)c(OC(F)F)c1 | inactive: -8.96% | 
2 | Cc1cccc(N=C2C(=O)Nc3c(Cl)cccc32)c1 |  | inconclusive: 0.631 µM [inhibitor, full curve, poor fit]
3 | O=C(CCS(=O)(=O)c1nc(-c2ccc3c(c2)OCO3)cc(C(F)(F)F)n1)Nc1ccccc1F |  | active: 39.8 µM
4 | Cc1[nH][nH]c(=O)c1C(c1ccc(-c2cccc(C(=O)O)c2)o1)c1c(C)[nH][nH]c1=O |  | inconclusive: 28.2 µM [inhibitor, full curve]
5 | O=C(NCCCn1ccnc1)/C(=C\c1ccc(Br)cc1)NC(=O)c1ccccc1 |  | inconclusive: 22.4 µM [inhibitor, single point]
6 | Cc1nc2c3cc(Cl)ccc3n(CCN3CCCCC3)c2s1 | inactive: -1.63% | 
7 | O=c1[nH]c(/C(Cl)=C/c2cccc(F)c2)nc2cc(C(F)(F)F)ccc12 | inactive: -22.2% | 
8 | CC(=O)Nc1cccc(C(=O)/C=C/c2ccc(Br)cc2)c1 |  | active: 25.1 µM
9 | COc1ccc(/C=C2/SC(=S)N(CCCC(=O)Nc3ccccc3C(=O)O)C2=O)cc1 |  | inconclusive: 79.4 µM [inhibitor, single point]
10 | O=C(CC12CC3CC(CC(C3)C1)C2)N/N=C/c1ccncc1 |  | inconclusive: 50.1 µM [inhibitor, partial curve, poor fit]
11 | C=CCOc1ccc(/C=C2\SC(=S)N(CCC(=O)O)C2=O)cc1 |  | inconclusive: 20 µM [inhibitor, single point]
12 | O=C(NCc1cccs1)C1CC(c2ccccc2O)=NO1 (centres undefined) | inactive: 3.96% | 
13 | O=C1Cc2cc(NS(=O)(=O)c3ccc(F)cc3)cc3c2N1CCC3 | inactive: -8.6% | 
14 | CCCn1c(SCC(=O)N(C2CCCCC2)C2CCS(=O)(=O)C2)n[nH]c1=O (centres undefined) |  | inconclusive: 89.1 µM [inhibitor, single point]
15 | CN(CC(=O)Nc1ccc(Cl)c(C(F)(F)F)c1)C(=O)/C=C/c1cccs1 | inactive: -6.55% | 
16 | Cc1ccc(/C=C/C(=O)Nc2cc(=O)n(C)c(=O)n2C)o1 |  | inconclusive: 50.1 µM [inhibitor, partial curve, poor fit]
17 | COC(=O)[C@H](CCSC)NC(=O)Cn1cnc2c(SC)nc(N)nc21 |  | inconclusive: 79.4 µM [inhibitor, partial curve, poor fit]
18 | CCC(C)Sc1ccc([C@@H]2[C@@H]3C(=O)N(CC)C(=O)[C@@H]3[C@]3(C(=O)OC)CCCCN23)cc1 (some centres undefined) | inactive: 3.82% | 
19 | COc1ccc(S(=O)(=O)N2CCC(C(=O)NCCC(=O)Nc3cccc(Cl)c3)CC2)cc1 |  | active: 28.2 µM

2 entries picked at random from those above:
Row | SMILES | max response, negative = inhibition | Potency
17 | COC(=O)[C@H](CCSC)NC(=O)Cn1cnc2c(SC)nc(N)nc21 |  | inconclusive: 79.4 µM [inhibitor, partial curve, poor fit]
18 | CCC(C)Sc1ccc([C@@H]2[C@@H]3C(=O)N(CC)C(=O)[C@@H]3[C@]3(C(=O)OC)CCCCN23)cc1 (some centres undefined) | inactive: 3.82% | 
